Values from PubChem BioAssay AID1259308 (NCATS, 2017).

Purpose: 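Genes whose loss raises luciferase production in HEK293 cells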 (primary screen)
Cell system: human HEK293 embryonic kidney cells stably expressing firefly luciferase (HEK-CMV-Luc2-Hygro)
Reagent: single siRNA against human genes, 0.8 pmol siRNA per well
Duration: 72 h
Read-out: 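Reporter luminescence and viable-cell signal on separate replicate plates, given as percent of non-targeting control and median/MAD z-scores, plus per-cell luciferase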
Scale: total luciferase, z-score: higher = more reporter protein produced
Rule for the call: 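Active when the median/MAD z-score for overall luciferase is greater than 3; a gene was taken forward for validation with new siRNAs if at least two of its three siRNAs passed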
Calls: active = raised luciferase; inactive = no rise
In all, the deposit lists about 59,000 reagents; this is an unselected part. Of all reagents, about 1,510 (2.6%) got an active call. 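Calls use total luciferase alone and ignore viability, so some active siRNAs may act by altering cell number.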 A number with no mark means an inactive call. The numbers tell different reagents against one gene apart. Not all columns of the deposit are shown.

KLHL9 (GeneID 55958) #1 | total luciferase, z-score: -0.385
KLHL9 (GeneID 55958) #2 | total luciferase, z-score: 1.55
KLHL9 (GeneID 55958) #3 | total luciferase, z-score: -1.01
NRP1 (GeneID 8829) #1 | total luciferase, z-score: -0.588
NRP1 (GeneID 8829) #2 | total luciferase, z-score: -1.9
NRP1 (GeneID 8829) #3 | total luciferase, z-score: 0.242
DYNC2I1 (GeneID 55112) #1 | total luciferase, z-score: 0.47
DYNC2I1 (GeneID 55112) #2 | total luciferase, z-score: 0.256
DYNC2I1 (GeneID 55112) #3 | total luciferase, z-score: -1.39
SGPP2 (GeneID 130367) #1 | total luciferase, z-score: 0.0214
SGPP2 (GeneID 130367) #2 | total luciferase, z-score: -0.0239
SGPP2 (GeneID 130367) #3 | total luciferase, z-score: 0.411
CDKN1B (GeneID 1027) #1 | total luciferase, z-score: -0.478
CDKN1B (GeneID 1027) #2 | total luciferase, z-score: -1.83
CDKN1B (GeneID 1027) #3 | total luciferase, z-score: -0.946
SORD2P (GeneID 653381) #1 | total luciferase, z-score: 0.381
SORD2P (GeneID 653381) #2 | total luciferase, z-score: -0.977
SORD2P (GeneID 653381) #3 | total luciferase, z-score: 0.238
UNC119B (GeneID 84747) #1 | total luciferase, z-score: -0.711
UNC119B (GeneID 84747) #2 | total luciferase, z-score: -0.478
UNC119B (GeneID 84747) #3 | total luciferase, z-score: -0.525
MTMR6 (GeneID 9107) #1 | total luciferase, z-score: 2.97
MTMR6 (GeneID 9107) #2 | total luciferase, z-score: 0.286
MTMR6 (GeneID 9107) #3 | total luciferase, z-score: -1.58
ZNF267 (GeneID 10308) #1 | total luciferase, z-score: 3.68 (active)
ZNF267 (GeneID 10308) #2 | total luciferase, z-score: 1.4
ZNF267 (GeneID 10308) #3 | total luciferase, z-score: -1.68
SDC4 (GeneID 6385) #1 | total luciferase, z-score: 1.33
SDC4 (GeneID 6385) #2 | total luciferase, z-score: 3.69 (active)
SDC4 (GeneID 6385) #3 | total luciferase, z-score: -1.22
RGPD2 (GeneID 729857) #1 | total luciferase, z-score: 0.0134
RGPD2 (GeneID 729857) #2 | total luciferase, z-score: -0.757
RGPD2 (GeneID 729857) #3 | total luciferase, z-score: 1.41

Entries listed so far with an active call (2):
ZNF267 (GeneID 10308) #1 | total luciferase, z-score: 3.68 (active)
SDC4 (GeneID 6385) #2 | total luciferase, z-score: 3.69 (active)
